No constants are given. Whether binding was seen depends on the method and setting. For some assays here: In cells and extracts the contact can be indirect. Some entries that bind do so weakly or less than the wild type.
How the values were obtained:
[1] = target: λPΔ102 (truncated λP, residues 103-233), hexahistidine-tagged (bacteriophage λ) (UniProt P03689); assay: pull-down; Ni-NTA beads; co-expressed untagged DnaB and His-tagged λPΔ102 loaded in 10 mM imidazole, washed three times with 20 mM imidazole, eluted with 250 mM imidazole; SDS-PAGE
[2] = target: Escherichia coli DnaB helicase (Escherichia coli) (UniProt P0ACB0); assay: cross-linking; DSS cross-linking with mass spectrometry (CX-MS); EcDnaB-λP with Oriλ-derived ssDNA (0.2 mg/ml, protein to DNA 1:1.2), 2 mM DSS overnight at 4°C; the gel region of 170-460 kDa digested with trypsin; both purified

Sequences of proteins named here, by UniProt entry; tags and fusion partners are left off.
UniProt P0ACB0: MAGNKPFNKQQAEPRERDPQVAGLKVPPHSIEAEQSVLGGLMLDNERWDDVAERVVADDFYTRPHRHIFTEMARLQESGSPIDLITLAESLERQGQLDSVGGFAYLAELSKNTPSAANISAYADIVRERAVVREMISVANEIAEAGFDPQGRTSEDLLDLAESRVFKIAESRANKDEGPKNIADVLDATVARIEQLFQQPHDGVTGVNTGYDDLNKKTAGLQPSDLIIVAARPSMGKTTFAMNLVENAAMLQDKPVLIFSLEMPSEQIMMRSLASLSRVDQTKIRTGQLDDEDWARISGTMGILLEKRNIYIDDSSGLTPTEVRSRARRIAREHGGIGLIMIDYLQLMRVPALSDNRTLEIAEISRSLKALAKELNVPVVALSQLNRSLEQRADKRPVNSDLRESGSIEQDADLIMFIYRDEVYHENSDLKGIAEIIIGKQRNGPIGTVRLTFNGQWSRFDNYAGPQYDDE

Molecule	binding [1]	binding [2]
Escherichia coli DnaB helicase (from UniProt P0ACB0 1-471) (enzyme)	binds	
bacteriophage λP helicase loader (natural protein, UniProt P03689 1-233, looked up, bacteriophage λ replication protein P (helicase loader), full length, 233 residues, 26,518 Da, untagged; Five copies stand in the predominant complex with the DnaB hexamer; The 6BBM model of λP has no side chains and covers about residues 109-233; also called lambdaP; LP; source: E. coli BL21(DE3), co-expressed with DnaB (pCDFDuet-λP); purified as the BP complex (ammonium sulfate, Q-sepharose, …)) MKNIAAQMVNFDREQMRRIANNMPEQYDEKPQVQQVAQIINGVFSQLLATFPASLANRDQNEVNEIRRQWVLAFRENGITTMEQVNAGMRVARRQNRPFLPSPGQFVAWCREEASVTAGLPNVSELVDMVYEYCRKRGLYPDAESYPWKSNAHYWLVTNLYQNMRANALTDAELRRKAADELVHMTARINRGEAIPEPVKQLPVMGGRPLNRAQALAKIAEIKAKFGLKGASV		binds

Reference: publication PMC6391071, “Mechanisms of opening and closing of the bacterial replicative helicase” (eLife, 2018)
